No constants are given. Whether binding was seen depends on the method and setting. Binding seen in cells or lysates may run through a third protein. Some results given as binding are weak or reduced against the parent protein; the word gives no strength.

Sequences of proteins named here, by UniProt entry; tags and fusion partners are left off.
UniProt Q9JIS5: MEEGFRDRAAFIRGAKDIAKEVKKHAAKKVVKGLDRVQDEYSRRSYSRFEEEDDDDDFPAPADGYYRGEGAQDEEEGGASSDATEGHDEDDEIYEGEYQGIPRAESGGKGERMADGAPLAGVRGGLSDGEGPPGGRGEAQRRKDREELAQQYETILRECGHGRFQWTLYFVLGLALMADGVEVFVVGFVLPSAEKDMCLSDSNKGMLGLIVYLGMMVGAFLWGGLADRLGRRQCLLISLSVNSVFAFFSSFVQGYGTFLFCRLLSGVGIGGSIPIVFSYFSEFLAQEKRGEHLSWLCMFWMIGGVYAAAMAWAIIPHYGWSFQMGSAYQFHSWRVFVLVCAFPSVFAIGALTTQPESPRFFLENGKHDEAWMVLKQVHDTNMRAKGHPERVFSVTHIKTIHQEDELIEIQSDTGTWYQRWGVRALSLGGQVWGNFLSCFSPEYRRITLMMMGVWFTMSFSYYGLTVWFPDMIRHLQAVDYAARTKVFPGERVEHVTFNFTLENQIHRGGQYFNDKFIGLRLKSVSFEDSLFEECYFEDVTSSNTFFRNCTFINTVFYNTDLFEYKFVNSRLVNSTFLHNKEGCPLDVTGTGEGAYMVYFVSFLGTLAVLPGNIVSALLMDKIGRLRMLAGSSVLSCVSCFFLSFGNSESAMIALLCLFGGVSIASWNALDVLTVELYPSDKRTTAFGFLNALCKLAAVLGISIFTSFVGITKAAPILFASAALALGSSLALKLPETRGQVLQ
UniProt Q8BG39: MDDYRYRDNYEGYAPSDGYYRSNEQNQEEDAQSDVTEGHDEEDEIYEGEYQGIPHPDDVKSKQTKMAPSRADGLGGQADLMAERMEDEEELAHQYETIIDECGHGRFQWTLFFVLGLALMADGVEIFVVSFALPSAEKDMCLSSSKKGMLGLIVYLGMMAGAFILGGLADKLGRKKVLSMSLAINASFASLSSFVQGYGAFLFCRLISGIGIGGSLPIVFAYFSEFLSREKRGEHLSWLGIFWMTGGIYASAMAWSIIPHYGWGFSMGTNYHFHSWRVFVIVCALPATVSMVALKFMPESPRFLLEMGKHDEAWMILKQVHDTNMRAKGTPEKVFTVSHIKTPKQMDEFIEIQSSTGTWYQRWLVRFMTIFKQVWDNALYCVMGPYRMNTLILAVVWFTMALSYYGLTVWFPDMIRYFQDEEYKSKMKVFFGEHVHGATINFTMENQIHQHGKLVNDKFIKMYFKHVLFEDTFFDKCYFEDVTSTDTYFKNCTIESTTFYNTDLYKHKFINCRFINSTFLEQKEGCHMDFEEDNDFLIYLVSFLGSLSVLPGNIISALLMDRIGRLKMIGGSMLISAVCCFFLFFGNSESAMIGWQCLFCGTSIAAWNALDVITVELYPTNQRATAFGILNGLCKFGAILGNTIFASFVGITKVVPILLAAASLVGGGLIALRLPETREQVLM

The values that follow come from paper doi:10.1101/640185.

For this assay, the target named is Synaptic Vesicle protein 2A (mouse (endogenous in mouse brain)) (UniProt Q9JIS5). The assay is described as follows: co-IP.

SV2B (from UniProt Q8BG39 1-683): the binding entry was “binds”.
